No constants are given. Whether binding was seen depends on the method and setting. For part of these data: Binding can be weak; no strength is given. For part of these data: Binding seen in cells or lysates may run through a third protein.
Legend:
GST-ANTH domain of CALM = GST-ANTH domain of CALM (UniProt Q7M6Y3); assay: condition: 30 μg GST-fusion protein with 4 mg of whole mouse brain extract; pull-down; 30 μg GST or GST-fusion protein on Glutathione Sepharose beads with 4 mg whole mouse brain extract (10 mM HEPES, 1% Triton X-100), overnight, 4°C; immunoblotting; only the target purified
[1] = target: GST-tagged cytoplasmic tail of GluA1 (UniProt P19490); assay: pull-down; in vitro binding: 5 μg recombinant purified GST or GST-fusion protein (on beads) with 5 μg His-fusion protein in 300 μl 20 mM HEPES pH 7.4, 100 mM NaCl, 2 mM MgCl2, 0.1% saponin, 1 hour, 4°C; immunoblotting with GST- and His-tag antibodies; both purified

By UniProt entry, the sequences of proteins in these tests, tags left out. Where a name states a change or a piece, a line headed by the entry shows the natural chain unless it says otherwise. Residues count along the entry.
UniProt Q7M6Y3: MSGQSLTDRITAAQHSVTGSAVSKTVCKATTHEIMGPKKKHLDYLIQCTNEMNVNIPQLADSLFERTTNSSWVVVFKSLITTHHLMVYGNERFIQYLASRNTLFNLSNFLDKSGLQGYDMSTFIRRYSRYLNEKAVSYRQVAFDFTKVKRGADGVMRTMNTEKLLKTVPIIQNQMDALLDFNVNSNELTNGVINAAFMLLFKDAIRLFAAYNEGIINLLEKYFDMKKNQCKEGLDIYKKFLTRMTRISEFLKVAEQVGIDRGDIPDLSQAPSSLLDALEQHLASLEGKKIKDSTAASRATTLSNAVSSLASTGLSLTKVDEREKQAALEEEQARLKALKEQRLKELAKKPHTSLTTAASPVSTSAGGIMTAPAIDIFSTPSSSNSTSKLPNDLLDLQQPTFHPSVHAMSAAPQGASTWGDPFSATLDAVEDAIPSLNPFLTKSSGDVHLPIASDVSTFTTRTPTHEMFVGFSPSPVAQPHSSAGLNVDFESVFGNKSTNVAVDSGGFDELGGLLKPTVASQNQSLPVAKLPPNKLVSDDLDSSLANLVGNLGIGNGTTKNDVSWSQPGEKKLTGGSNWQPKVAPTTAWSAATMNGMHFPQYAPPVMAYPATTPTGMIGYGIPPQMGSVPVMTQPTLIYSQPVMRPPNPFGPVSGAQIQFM
UniProt P19490: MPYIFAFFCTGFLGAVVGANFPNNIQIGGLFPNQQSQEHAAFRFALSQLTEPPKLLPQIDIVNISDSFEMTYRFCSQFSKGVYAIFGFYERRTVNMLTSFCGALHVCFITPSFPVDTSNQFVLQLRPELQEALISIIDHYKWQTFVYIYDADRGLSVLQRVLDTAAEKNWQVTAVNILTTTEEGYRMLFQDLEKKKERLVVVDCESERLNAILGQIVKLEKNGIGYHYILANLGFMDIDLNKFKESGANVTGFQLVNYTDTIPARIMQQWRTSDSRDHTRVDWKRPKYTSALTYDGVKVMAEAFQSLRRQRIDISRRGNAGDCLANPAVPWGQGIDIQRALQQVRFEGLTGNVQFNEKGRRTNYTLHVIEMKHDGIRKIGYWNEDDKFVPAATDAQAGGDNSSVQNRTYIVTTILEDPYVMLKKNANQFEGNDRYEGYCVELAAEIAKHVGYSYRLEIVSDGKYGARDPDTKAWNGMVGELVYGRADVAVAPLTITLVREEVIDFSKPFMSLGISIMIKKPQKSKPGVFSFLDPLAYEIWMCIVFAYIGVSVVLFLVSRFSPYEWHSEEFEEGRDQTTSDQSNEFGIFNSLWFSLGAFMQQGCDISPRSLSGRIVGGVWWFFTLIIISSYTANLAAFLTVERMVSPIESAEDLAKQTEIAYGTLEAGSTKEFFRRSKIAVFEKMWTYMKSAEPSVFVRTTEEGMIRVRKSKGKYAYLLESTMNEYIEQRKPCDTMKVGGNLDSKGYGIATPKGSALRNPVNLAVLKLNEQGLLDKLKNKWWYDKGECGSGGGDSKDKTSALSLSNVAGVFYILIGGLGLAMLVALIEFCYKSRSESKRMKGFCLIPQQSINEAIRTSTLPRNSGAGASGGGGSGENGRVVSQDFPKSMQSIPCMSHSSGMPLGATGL
UniProt Q01097, residues 27-1482: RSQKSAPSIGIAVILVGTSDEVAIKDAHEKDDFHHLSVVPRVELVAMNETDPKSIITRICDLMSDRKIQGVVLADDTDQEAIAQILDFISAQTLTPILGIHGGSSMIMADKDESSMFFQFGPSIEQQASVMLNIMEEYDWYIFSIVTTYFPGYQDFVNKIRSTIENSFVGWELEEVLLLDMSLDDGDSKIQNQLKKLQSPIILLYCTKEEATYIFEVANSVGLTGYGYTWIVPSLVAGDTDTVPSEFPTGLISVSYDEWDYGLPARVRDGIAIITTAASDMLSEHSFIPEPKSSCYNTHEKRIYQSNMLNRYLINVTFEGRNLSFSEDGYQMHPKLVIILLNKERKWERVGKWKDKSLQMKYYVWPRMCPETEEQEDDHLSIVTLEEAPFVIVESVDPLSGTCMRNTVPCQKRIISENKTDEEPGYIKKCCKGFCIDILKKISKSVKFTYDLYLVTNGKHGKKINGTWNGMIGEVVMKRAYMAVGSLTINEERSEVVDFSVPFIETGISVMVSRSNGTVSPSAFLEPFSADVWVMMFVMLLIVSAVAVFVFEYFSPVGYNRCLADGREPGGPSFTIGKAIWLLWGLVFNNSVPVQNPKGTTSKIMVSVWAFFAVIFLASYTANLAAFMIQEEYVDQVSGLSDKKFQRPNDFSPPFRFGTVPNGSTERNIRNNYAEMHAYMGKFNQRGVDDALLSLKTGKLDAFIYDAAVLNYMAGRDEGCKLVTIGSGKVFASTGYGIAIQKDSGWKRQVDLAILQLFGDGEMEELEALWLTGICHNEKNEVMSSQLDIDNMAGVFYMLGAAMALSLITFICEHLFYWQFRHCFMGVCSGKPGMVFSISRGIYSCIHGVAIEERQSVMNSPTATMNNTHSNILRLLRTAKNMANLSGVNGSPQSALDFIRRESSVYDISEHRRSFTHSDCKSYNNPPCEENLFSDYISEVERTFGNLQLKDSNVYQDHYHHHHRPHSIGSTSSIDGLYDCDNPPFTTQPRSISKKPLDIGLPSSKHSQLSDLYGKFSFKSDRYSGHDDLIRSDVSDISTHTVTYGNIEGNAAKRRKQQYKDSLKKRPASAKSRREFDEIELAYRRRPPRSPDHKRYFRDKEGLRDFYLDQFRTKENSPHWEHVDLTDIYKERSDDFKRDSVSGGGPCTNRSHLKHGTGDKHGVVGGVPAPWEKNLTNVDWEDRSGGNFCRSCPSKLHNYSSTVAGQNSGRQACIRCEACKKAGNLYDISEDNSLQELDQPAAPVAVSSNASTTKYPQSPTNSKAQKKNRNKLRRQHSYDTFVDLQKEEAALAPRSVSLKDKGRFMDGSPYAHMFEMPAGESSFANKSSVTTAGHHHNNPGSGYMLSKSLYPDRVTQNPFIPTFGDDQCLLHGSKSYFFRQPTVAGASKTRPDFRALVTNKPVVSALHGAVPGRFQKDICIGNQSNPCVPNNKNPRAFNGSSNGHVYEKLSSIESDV

Row | binding (GST-ANTH domain of CALM) | binding [1] | Substance
1 | no binding |  | GluN2A (NMDAR subunit), endogenous (from UniProt P35436 23-1464) (receptor)
2 | no binding |  | GluN2B (NMDAR subunit), endogenous (from UniProt Q01097 27-1482) (receptor)
3 |  | binds | His6-tagged ANTH domain of CALM, wild type (from UniProt Q7M6Y3) (domain or fragment)

Reference: publication PMC9132451
